The subject of assay [1] is human multiple myeloma cell line, OPM-2. The experiment in a line: Cell viability assay (OPM-2 10 FBS), CellTiter-Glo. The class given is cell-based. The following applies: read-out: OPM-2 10% FBS IC50 IP, OPM-2 cells, 16 h incubation.
Assay [2] deals with recombinant human Mcl-1 (residues 171-327) / Bim interaction (Homo sapiens (Human), UniProt Q07820). The following applies: read-out: Mcl-1 HTRF IC50; 0.1 nM Mcl-1(171-327), 0.05 nM biotin-Bim (51-76).

Protein sequences, listed by entry. Tags and fused reporters are not part of them. Residues count along the entry.
UniProt Q07820, 171-327 limits assumed: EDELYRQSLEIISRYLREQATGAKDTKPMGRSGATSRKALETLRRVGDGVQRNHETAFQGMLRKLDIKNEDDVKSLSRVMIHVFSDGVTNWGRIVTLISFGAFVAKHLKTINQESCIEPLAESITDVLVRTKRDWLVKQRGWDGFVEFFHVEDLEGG

pIC50: −log10 of the molar value. Structures were worked out from names or drawings and are uncertain.

`CO[C@@]1(CN2CCN([C@H](CCO)CC(=O)O)CC2)/C=C/C[C@H](C)[C@@H](C)S(=O)(=O)NC(=O)c2ccc3c(c2)N(C[C@@H]2CC[C@H]21)C[C@@]1(CCCc2cc(Cl)ccc21)CO3`: the pIC50 in assay [1] is 6.24.
Consider `CO[C@@]1(CN2CCN3CCN(C(C)C)CC3C2)/C=C/C[C@H](C)[C@@H](C)S(=O)(=O)NC(=O)c2ccc3c(c2)N(C[C@@H]2CC[C@H]21)C[C@@]1(CCCc2cc(Cl)ccc21)CO3` (stereo partly shown), for which the pIC50 was 6.92 in assay [1] and 9.74 in assay [2].
Consider `CO[C@@]1(CN2CCN([C@H]3CCOC(=O)C3)CC2)/C=C/C[C@H](C)[C@@H](C)S(=O)(=O)NC(=O)c2ccc3c(c2)N(C[C@@H]2CC[C@H]21)C[C@@]1(CCCc2cc(Cl)ccc21)CO3`, for which, in assay [1], the pIC50 is 6.44.

Values taken from patent US10821115B2, “Compounds that inhibit Mcl-1 protein” (priority 2017, dated 2020).
